Experimental data: the supplement of paper PMC10849652
The list shows a part of the results.

Sequences of proteins named here, by UniProt entry; tags and fusion partners are left off. A change or cut given only in a name is not applied to a line headed by its entry.
UniProt Q99615: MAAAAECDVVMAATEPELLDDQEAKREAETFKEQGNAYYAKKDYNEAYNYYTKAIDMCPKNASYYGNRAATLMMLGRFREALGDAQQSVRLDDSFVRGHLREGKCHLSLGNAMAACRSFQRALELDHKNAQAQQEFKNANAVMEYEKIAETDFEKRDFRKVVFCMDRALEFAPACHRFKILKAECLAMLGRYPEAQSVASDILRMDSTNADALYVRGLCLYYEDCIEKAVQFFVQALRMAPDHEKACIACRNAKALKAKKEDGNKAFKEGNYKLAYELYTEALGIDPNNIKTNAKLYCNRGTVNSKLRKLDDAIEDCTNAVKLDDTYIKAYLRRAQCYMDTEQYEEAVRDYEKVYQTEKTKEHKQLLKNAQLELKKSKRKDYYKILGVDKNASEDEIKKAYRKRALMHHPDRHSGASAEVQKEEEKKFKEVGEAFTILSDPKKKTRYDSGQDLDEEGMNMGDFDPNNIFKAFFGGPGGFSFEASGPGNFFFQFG
UniProt O00115: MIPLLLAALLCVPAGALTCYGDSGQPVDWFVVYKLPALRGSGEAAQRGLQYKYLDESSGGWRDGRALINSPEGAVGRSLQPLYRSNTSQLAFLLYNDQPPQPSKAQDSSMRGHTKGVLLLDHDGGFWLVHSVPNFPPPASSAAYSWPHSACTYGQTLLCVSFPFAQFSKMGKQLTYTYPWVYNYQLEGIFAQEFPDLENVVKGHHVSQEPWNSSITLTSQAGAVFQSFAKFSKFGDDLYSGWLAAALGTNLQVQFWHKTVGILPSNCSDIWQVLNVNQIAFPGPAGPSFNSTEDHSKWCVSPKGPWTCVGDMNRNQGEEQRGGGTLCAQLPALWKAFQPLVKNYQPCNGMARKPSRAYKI
UniProt Q6P2E9: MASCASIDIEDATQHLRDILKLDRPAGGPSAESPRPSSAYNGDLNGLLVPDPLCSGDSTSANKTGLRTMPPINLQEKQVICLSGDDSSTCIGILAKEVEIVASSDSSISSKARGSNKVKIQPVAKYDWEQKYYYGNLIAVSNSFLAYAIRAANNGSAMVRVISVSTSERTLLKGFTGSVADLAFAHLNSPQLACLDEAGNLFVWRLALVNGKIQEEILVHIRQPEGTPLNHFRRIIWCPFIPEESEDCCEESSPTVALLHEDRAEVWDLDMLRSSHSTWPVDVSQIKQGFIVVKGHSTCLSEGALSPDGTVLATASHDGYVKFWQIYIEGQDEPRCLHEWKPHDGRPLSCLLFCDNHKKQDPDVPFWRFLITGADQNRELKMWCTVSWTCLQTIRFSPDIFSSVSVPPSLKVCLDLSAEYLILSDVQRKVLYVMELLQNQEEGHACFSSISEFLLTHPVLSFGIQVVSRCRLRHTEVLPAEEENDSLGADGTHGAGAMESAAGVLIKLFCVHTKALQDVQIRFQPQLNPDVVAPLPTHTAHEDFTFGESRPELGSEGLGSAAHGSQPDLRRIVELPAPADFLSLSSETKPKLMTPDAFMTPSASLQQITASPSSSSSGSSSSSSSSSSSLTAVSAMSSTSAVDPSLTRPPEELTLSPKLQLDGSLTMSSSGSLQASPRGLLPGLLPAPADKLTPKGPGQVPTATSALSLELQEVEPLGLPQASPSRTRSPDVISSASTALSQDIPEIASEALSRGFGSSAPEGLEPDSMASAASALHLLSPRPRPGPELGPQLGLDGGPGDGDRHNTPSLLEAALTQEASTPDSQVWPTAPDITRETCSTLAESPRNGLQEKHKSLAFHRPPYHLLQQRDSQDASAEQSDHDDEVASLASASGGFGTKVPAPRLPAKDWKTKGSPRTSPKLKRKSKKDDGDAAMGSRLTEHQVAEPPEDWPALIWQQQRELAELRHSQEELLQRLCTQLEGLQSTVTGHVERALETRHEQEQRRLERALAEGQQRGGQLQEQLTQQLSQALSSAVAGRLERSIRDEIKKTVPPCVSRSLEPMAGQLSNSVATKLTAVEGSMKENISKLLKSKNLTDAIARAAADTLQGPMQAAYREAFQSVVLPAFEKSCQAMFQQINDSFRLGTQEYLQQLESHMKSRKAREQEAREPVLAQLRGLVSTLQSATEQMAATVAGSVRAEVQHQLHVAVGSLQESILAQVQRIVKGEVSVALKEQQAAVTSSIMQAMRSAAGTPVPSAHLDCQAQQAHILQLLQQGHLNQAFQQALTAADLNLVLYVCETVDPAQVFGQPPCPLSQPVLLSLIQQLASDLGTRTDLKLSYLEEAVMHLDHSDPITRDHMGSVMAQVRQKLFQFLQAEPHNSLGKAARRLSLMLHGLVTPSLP
UniProt Q9BTV6: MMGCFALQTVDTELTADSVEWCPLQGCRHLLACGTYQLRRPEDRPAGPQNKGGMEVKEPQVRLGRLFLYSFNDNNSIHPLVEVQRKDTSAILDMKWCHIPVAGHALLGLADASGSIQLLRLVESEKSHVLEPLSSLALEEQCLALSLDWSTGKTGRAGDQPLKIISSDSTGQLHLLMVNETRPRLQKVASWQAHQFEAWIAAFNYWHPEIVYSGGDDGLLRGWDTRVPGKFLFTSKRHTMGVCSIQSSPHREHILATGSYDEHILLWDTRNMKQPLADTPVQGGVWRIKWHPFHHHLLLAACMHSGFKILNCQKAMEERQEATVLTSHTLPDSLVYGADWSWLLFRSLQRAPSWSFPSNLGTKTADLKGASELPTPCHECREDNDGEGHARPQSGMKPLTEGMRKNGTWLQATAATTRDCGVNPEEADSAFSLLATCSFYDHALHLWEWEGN
UniProt Q13011: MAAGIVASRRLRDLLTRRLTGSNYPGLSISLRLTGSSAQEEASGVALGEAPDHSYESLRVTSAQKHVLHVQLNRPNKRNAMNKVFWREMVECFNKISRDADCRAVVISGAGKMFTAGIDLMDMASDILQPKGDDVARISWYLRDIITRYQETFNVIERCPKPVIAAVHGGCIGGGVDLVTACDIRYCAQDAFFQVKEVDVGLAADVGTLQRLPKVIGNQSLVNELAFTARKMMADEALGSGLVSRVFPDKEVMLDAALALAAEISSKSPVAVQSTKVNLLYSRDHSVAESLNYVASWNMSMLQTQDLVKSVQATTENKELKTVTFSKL
UniProt Q9NVM6: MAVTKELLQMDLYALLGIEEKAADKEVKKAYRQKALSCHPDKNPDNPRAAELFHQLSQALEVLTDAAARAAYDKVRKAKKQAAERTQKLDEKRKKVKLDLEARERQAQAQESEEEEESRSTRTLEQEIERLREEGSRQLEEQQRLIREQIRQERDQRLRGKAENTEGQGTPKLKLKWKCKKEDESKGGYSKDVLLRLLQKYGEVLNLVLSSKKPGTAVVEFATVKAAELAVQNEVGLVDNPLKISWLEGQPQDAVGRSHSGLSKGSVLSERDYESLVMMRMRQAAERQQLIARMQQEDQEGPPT
UniProt Q9P2X0: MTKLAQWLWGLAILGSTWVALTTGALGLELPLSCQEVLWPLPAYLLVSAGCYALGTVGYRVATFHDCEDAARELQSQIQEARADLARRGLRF
UniProt O60869: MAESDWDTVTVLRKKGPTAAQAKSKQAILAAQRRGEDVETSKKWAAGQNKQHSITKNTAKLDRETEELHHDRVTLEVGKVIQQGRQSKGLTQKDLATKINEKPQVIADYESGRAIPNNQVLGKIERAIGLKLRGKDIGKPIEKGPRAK
UniProt P42892: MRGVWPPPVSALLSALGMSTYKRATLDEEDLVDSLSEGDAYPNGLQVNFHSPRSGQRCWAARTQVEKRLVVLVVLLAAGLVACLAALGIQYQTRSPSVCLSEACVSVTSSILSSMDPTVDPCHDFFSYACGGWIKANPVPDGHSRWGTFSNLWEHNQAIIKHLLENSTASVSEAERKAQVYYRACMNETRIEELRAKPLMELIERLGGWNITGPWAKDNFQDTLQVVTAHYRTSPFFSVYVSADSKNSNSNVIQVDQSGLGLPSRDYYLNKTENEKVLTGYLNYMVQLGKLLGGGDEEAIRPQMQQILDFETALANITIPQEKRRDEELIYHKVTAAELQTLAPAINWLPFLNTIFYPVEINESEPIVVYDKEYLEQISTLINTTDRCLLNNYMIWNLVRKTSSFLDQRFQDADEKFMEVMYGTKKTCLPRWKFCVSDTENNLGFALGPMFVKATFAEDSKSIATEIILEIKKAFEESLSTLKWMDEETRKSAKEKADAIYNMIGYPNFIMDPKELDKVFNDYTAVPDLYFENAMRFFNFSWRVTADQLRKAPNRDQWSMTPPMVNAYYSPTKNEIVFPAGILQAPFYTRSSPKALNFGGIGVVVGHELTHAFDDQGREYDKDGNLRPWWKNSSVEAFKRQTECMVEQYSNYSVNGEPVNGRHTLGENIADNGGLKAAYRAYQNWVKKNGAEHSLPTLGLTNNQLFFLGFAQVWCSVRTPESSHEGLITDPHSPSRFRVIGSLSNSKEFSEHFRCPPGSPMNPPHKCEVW
UniProt Q01658: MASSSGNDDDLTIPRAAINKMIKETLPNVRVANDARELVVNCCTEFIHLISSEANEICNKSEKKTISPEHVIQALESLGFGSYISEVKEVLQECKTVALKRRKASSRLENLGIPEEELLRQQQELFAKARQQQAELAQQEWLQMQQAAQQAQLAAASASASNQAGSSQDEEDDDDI
UniProt Q9BZ29: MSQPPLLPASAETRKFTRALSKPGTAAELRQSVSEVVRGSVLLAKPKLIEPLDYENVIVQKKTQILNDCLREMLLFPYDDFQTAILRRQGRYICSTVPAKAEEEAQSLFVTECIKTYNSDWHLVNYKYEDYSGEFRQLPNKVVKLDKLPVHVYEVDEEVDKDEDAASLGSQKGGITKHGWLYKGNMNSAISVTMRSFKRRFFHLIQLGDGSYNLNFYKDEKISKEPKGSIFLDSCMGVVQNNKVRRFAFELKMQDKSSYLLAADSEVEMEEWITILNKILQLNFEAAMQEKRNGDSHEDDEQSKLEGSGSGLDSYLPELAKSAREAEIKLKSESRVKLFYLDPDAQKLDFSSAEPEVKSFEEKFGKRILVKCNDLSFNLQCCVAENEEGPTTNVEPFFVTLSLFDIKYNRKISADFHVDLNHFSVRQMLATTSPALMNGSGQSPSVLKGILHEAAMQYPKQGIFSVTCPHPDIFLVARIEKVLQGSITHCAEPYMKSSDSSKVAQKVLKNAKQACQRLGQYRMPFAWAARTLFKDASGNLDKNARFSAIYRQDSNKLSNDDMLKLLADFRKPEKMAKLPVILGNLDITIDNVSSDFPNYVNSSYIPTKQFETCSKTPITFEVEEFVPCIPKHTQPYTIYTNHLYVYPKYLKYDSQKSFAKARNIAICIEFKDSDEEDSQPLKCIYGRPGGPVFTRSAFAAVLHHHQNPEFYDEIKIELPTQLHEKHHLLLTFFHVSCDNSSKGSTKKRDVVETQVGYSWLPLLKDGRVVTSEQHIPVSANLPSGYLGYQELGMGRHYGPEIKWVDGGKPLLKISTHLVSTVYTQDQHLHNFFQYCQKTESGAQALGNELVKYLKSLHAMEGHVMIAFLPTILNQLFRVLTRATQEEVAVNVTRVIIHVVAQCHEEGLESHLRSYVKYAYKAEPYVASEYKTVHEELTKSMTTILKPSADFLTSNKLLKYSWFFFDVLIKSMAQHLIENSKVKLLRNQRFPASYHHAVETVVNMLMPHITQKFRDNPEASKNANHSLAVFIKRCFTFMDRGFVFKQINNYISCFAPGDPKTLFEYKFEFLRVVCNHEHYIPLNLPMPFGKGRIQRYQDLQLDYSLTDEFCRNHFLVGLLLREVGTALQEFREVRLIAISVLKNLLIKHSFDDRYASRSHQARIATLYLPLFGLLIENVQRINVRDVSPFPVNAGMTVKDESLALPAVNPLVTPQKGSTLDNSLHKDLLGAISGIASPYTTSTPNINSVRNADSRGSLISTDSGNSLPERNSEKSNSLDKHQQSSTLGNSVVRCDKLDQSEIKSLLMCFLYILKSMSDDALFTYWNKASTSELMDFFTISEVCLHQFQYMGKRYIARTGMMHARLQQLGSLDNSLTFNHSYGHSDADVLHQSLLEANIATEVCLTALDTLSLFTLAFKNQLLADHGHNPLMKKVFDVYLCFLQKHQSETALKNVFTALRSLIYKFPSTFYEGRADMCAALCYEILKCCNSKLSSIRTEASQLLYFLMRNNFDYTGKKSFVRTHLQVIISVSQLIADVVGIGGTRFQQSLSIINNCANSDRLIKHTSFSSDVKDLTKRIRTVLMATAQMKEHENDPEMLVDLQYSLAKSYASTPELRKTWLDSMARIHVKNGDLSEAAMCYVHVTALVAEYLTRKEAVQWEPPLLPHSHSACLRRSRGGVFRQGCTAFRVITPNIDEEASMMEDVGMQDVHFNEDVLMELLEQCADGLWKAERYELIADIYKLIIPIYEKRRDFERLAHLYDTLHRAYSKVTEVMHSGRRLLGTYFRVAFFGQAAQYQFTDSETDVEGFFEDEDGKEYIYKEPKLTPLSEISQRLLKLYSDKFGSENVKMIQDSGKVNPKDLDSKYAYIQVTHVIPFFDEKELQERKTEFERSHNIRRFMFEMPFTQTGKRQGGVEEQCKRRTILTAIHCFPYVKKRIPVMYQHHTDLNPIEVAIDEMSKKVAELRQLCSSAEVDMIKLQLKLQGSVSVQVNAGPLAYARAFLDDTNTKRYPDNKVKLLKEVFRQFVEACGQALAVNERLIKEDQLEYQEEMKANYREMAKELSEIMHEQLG

What follows are targets tested with C1=CC(=C(C=C1Cl)C2=NC3=NC=CN=C3C(=N2)NC4=CC=NC=C4)F (assay: log2 fold change, soluble protein after heating vs DMSO (PISA); higher = thermal stabilisation; K562 cells, 10 uM, 30 min; active = over 0.2 and 3.5 SD of the protein, either way, in both replicates (recomputed)).
In short: (§1)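 Aliquots of K562 cells (2×10^6 cells/mL) treated with 10 μM compound for 30 min were heated for 3 min over 48°C-58°C. After pooling and extraction in PBS with 0.5% NP-40 at 4°C, soluble protein from a 21,000xg, 90 min spin was quantified by TMTpro 16plex LC-MS/MS with channel sums equalised. Thermal stability is expressed against control samples, from duplicates, as a log2 fold change.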

log2 fold change, inactive:
DNAJC13 (UniProt O75165) -0.03, DYRK1A isoform 2 (UniProt Q13627) -0.058, DRAP1 isoform 2 (UniProt Q14919) 0.007, E2F4 (UniProt Q16254) 0.019, DNAJC2 (UniProt Q99543) -0.062, DNAJC5 (UniProt Q9H3Z4) 0.002, EDEM1 (UniProt Q92611) 0.003, DNAJC7 (UniProt Q99615) 0.061, DNASE2 (UniProt O00115) 0.068, ECM1 isoform 4 (UniProt Q16610) 0.07, DUT (UniProt P33316) 0.022, EDC4 (UniProt Q6P2E9) -0.058, DSTN (UniProt P60981) 0.041, DOCK7 (UniProt Q96N67) 0.069, DSC2 (UniProt Q02487) 0.036, DUSP3 (UniProt P51452) 0.044, DPH7 (UniProt Q9BTV6) 0.021, DRG1 (UniProt Q9Y295) -0.054, EDC3 (UniProt Q96F86) 0.009, ECH1 (UniProt Q13011) 0.243, DNAJB14 (UniProt Q8TBM8) -0.001, DST (UniProt Q03001) -0.204, DSG2 (UniProt Q14126) 0.016, DNAJC17 (UniProt Q9NVM6) 0.047, DPM3 isoform 2 (UniProt Q9P2X0) 0.13, DNAJB4 (UniProt Q9UDY4) -0.044, EDF1 (UniProt O60869) 0.043, ECE1 (UniProt P42892) -0.043, DNAJB11 (UniProt Q9UBS4) 0.004, DR1 (UniProt Q01658) 0.019, DNLZ (UniProt Q5SXM8) -0.019, DOCK9 isoform 4 (UniProt Q9BZ29) -0.022, DPH1 (UniProt Q9BZG8) 0.108

The targets below were run with C1=CC(=CC=C1C2=NC3=C(N2)C=C(C=C3)C(=O)N)OC4=CC=C(C=C4)Cl in the same assay as above.
In short: as §1

log2 fold change, inactive:
DNAJC13 (UniProt O75165) 0.027, DYRK1A isoform 2 (UniProt Q13627) 0.019, DRAP1 isoform 2 (UniProt Q14919) 0.016, E2F4 (UniProt Q16254) -0.003, DNAJC2 (UniProt Q99543) -0.047, DNAJC5 (UniProt Q9H3Z4) 0.01, EDEM1 (UniProt Q92611) -0.042, DNAJC7 (UniProt Q99615) -0.002, DNASE2 (UniProt O00115) 0.005, ECM1 isoform 4 (UniProt Q16610) -0.031, DUT (UniProt P33316) -0.023, EDC4 (UniProt Q6P2E9) 0.017, DSTN (UniProt P60981) -0.002, DOCK7 (UniProt Q96N67) 0.125, DSC2 (UniProt Q02487) 0.092, DUSP3 (UniProt P51452) -0.013, DPH7 (UniProt Q9BTV6) -0.004, DRG1 (UniProt Q9Y295) 0.01, EDC3 (UniProt Q96F86) 0.043, ECH1 (UniProt Q13011) 0, DNAJB14 (UniProt Q8TBM8) -0.061, DST (UniProt Q03001) -0.053, DSG2 (UniProt Q14126) 0.047, DNAJC17 (UniProt Q9NVM6) -0.018, DPM3 isoform 2 (UniProt Q9P2X0) -0.009, DNAJB4 (UniProt Q9UDY4) 0.049, EDF1 (UniProt O60869) -0.027, ECE1 (UniProt P42892) 0.107, DNAJB11 (UniProt Q9UBS4) 0.023, DR1 (UniProt Q01658) -0.009, DNLZ (UniProt Q5SXM8) -0.109, DOCK9 isoform 4 (UniProt Q9BZ29) -0.012, DPH1 (UniProt Q9BZG8) 0.023

The targets below were run with C1=CC2=C(C=CC(=C2)/C=C\3/C(=O)NC(=NCC4=CC=CS4)S3)N=C1 in the same assay as above.
In short: as §1

log2 fold change, inactive:
DNAJC13 (UniProt O75165) -0.015, DYRK1A isoform 2 (UniProt Q13627) -0.095, DRAP1 isoform 2 (UniProt Q14919) -0.023, E2F4 (UniProt Q16254) 0.029, DNAJC2 (UniProt Q99543) 0.145, DNAJC5 (UniProt Q9H3Z4) 0.045, EDEM1 (UniProt Q92611) 0.052, DNAJC7 (UniProt Q99615) 0.014, DNASE2 (UniProt O00115) 0.002, ECM1 isoform 4 (UniProt Q16610) 0.022, DUT (UniProt P33316) 0.011, EDC4 (UniProt Q6P2E9) -0.177, DSTN (UniProt P60981) 0.003, DOCK7 (UniProt Q96N67) 0.006, DSC2 (UniProt Q02487) 0.081, DUSP3 (UniProt P51452) -0.008, DPH7 (UniProt Q9BTV6) 0.07, DRG1 (UniProt Q9Y295) 0.01, EDC3 (UniProt Q96F86) -0.007, ECH1 (UniProt Q13011) 0.126, DNAJB14 (UniProt Q8TBM8) -0.019, DST (UniProt Q03001) 0.258, DSG2 (UniProt Q14126) 0.032, DNAJC17 (UniProt Q9NVM6) 0.003, DPM3 isoform 2 (UniProt Q9P2X0) -0.003, DNAJB4 (UniProt Q9UDY4) 0.004, EDF1 (UniProt O60869) -0.025, ECE1 (UniProt P42892) -0.022, DNAJB11 (UniProt Q9UBS4) -0.022, DR1 (UniProt Q01658) 0, DNLZ (UniProt Q5SXM8) 0.015, DOCK9 isoform 4 (UniProt Q9BZ29) -0.073, DPH1 (UniProt Q9BZG8) -0.027
